PubChem BioAssay AID2685 (National Center for Advancing Translational Sciences (NCATS), 2010)
The whole screen tested about 320,000 compounds, of which about 2,100 (0.66%) were called active. This list was built around the results that the source calls inconclusive (neither active nor inactive); the mix of calls is not that of the screen. Calls follow the shape of the dose curve; as a rule, active = well fitted inhibition curve with a large enough effect in the signal ratio, with a control signal flat (not every such curve was filed as active); inconclusive = small, poorly fitted or top-dose-only effect, or effect the other way, or a change in a side signal; inactive = flat fitted curve, though single readings scatter; the % refers to the signal ratio. Potencies beside an inconclusive call are fits to weak or partial responses and may not hold up. Where a SMILES comes first, the peptide text is derived from it. The star is where a group is joined. Boc = CC(C)(C)OC(=O)*

Test: qHTS Assay for Lipid Storage Modulators in Drosophila S3 Cells
Conditions: BODIPY lipid droplet fluorescence, 18-24 h, cells fed with added oleic acid; lipid storage change, negative = inhibition: at 46.1 µM (top of the series) unless noted
In short: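 Laser-scanning cytometry quantifies lipid droplet accumulation (500–530 nm total intensity; droplet/cell object ratio) in oleic acid-fed (400 uM added) Drosophila S3 cells treated with a concentration series. 20 uM Triacsin C defined 100% inhibition.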
% is scaled to controls: 0 for no effect and ±100 for the full control effect; potency is read from the fitted curve at half-maximal effect.

SMILES	lipid storage change, negative = inhibition	Potency
Cc1ccc(-c2nnn(CC(=O)N3CCCCC3)n2)o1	inconclusive: -10.5%	–
O=C(O)CN1C(=O)c2cccc3c(Br)ccc1c23	inconclusive: 30.5%	–
CN1CCC(=O)N([C@H](CSc2ccccc2)Cc2ccccc2)CC1	inconclusive: -39.5%	–
CCOC(=O)C1=C(C)n2c(s/c(=C3\C(=O)Nc4ccccc43)c2=O)=NC1c1ccc(OC)cc1 (stereo unspecified)	inconclusive: 9.19%	–
CCOC(=O)C1CCCN(C(=O)C(=O)c2cn(CC(=O)N3CCOCC3)c3ccccc23)C1 (stereo unspecified)	–	inconclusive: 8.2 µM [falling, partial curve]
COc1cc(OC)cc(C(=O)N/N=C/c2ccc(OC)c(COc3ccc(F)cc3)c2)c1	–	inconclusive: 18.4 µM [falling, single point]
CCC(C)C(NC(=O)OC(C)(C)C)C(=O)NC(C)C(N)=O (stereo not drawn) (Boc-Ile-Ala-NH2; configuration not given here)	inconclusive: 4.42%	–
Cc1ccc(CNC(=O)c2ccc(N3CCC4(CC3)CC(c3ccccc3)=NO4)c(NC(=O)c3c(Cl)cccc3Cl)c2)cc1	inconclusive: -5.72%	–
N/C(=N\O)c1ccc(NC(=O)c2ccc(Br)o2)cc1	inconclusive: 19.5%	–
CN(Cc1ccc(C(F)(F)F)cc1)C(=O)c1ccc2ccccc2n1	inconclusive: -35.2%	–
COc1ccc(Br)c(-c2nnc(CS(=O)(=O)c3ccccc3)o2)c1	–	inconclusive: 0.0046 µM [activator, full curve, poor fit]
Cc1ccc2nc(SCC(=O)Nc3ccc(Br)cc3)nc(=O)n2c1	inactive	–
COc1ccc(C(=O)n2cnc3ccccc32)cc1[N+](=O)[O-]	–	inconclusive: 29.1 µM [activator, single point]
Cc1ccc(-c2cc(O)cc3sc(=O)oc23)cc1C	inconclusive: -16.6%	–
O=[N+]([O-])c1cc(S(=O)(=O)N2CCCC2)ccc1NN=C1CCCC1	–	inconclusive: 1.16 µM [rising, full curve]
COc1cc(NC(=O)COc2c(C)cc(C)cc2[N+](=O)[O-])c(OC)cc1Cl	inconclusive: -1.1%	–
CC1CCCCC12NC(=O)N(CC(=O)c1ccc[nH]1)C2=O (stereo unspecified)	inconclusive: -80.7%	–
COc1cccc(NC(=O)C2CC(=O)N=C(N)S2)c1 (stereo unspecified)	inconclusive: -10.2%	–
CC(=O)c1ccc(NS(=O)(=O)c2cc3c(cc2C)N(C)CCO3)cc1	–	inconclusive: 7.31 µM [activator, partial curve]
CCOc1ccc2[nH]c(=O)c(C(c3nnnn3Cc3ccco3)N3CCC(C)CC3)cc2c1 (stereo unspecified)	inconclusive: 38.7%	–
N#Cc1ccc(/C=C/C(=O)c2cccnc2)cc1	inconclusive: -82.3%	–
C=CCNC(=O)c1cccc(OC2CCN(CC(C)(C)C)CC2)c1	–	inconclusive: 29.1 µM [falling, single point]
COc1ccc(OC)c(-n2c(CNC3CCN(Cc4ccccc4)CC3)nc3ccccc3c2=O)c1	inconclusive: 5.15%	–
COc1ccc([C@@H]2[C@H]3CN(C(C)=O)CC=C3C(C#N)=C(N)C2(C#N)C#N)c2ccccc12	–	inconclusive: 29.1 µM [activator, single point]

Quoted from the listing.
Under lipid storage change, negative = inhibition, `COc1cc(NC(=O)COc2c(C)cc(C)cc2[N+](=O)[O-])c(OC)cc1Cl` is listed with inconclusive: -1.1%
Under Potency, `COc1cc(OC)cc(C(=O)N/N=C/c2ccc(OC)c(COc3ccc(F)cc3)c2)c1` is listed with inconclusive: 18.4 µM [falling, single point]

The results go on:

SMILES	lipid storage change, negative = inhibition	Potency
COc1ccc(C(=O)N(CN2CCCC2=O)c2cc(C)on2)cc1OC	inconclusive: 5.17%	–
CC(C)(C)C(=O)NCCN1CCN(C(=O)C(C)(C)C)CC1	inactive	–
C/C(=N\NC(=O)c1cc(-c2cccs2)nc2ccccc12)c1ccccn1	–	inconclusive: 0.461 µM [rising, partial curve, poor fit]
CS(=O)(=O)c1ncc(Cl)c(C(=O)Nc2ccc3ccccc3c2)n1	inconclusive: 0.0707%	–
O=C1NC(c2ccccc2Br)=N/C1=C\c1ccco1	–	inconclusive: 5.8 µM [activator, partial curve]
N/C(=N\OC(=O)c1ccccc1)c1ccncc1	inconclusive: 43.5%	–
Cc1cccc(-n2ncc3c(Nc4c(C)n(C)n(-c5ccccc5)c4=O)ncnc32)c1	inconclusive: 159%	–
O=[N+]([O-])c1ccc(-c2csc(N3CCCCCC3)n2)cc1	inconclusive: -100%	–
Cc1c(C(=O)OCC(=O)N(C)Cc2ccccc2)oc2ccccc12	inconclusive: -51.4%	–
COc1ccc(NC(=O)c2c(F)cccc2F)cc1S(=O)(=O)Nc1ccc(Br)cc1	–	inconclusive: 3.26 µM [activator, single point]
COc1ccc(N2C(=O)C(C)C(Cc3ccc(C)cc3)C2=O)cc1 (stereo unspecified)	–	inconclusive: 18.4 µM [falling, single point]
O=C(O)CCN1C(=O)NC2(CCCC2)C1=O	–	inconclusive: 2.91 µM [falling, full curve, poor fit]
CCOc1ccc(NC(=O)c2cc3c(C)nc4ccccc4c3o2)cc1	–	inconclusive: 1.3 µM [activator, partial curve]
CC(C)C(c1nnnn1C1CCCC1)N1c2ccccc2CC1C (stereo unspecified)	–	inconclusive: 0.651 µM [rising, full curve, poor fit]
Cc1cc(N2CCOCC2)nc2ccc(NC(=O)CCC(=O)N3CCN(c4ccc(F)cc4)CC3)cc12	–	inconclusive: 29.1 µM [activator, single point]
O=C(Oc1ccc(/C=N/O)cc1)c1ccccc1Cl	inactive	–
CCCCN(C(=O)c1cccc(C)c1)c1c(N)n(CCC)c(=O)[nH]c1=O	–	inconclusive: 0.116 µM [activator, full curve, poor fit]
COc1ccc(Cl)cc1NC(=O)COC(=O)c1cc(NS(=O)(=O)c2cccs2)ccc1O	–	inconclusive: 7.31 µM [activator, partial curve, poor fit]
COc1ccc(N2C(=O)C3CC(C)=C(C)CC3C2=O)c(OC)c1 (stereo unspecified)	–	inconclusive: 0.411 µM [falling, full curve]
COC(=O)CSc1nc2cc(OC)ccc2cc1C#N	inconclusive: 10.8%	–
CC(Oc1ccc(Cl)cc1Cl)c1nc(-c2ccccn2)no1 (stereo unspecified)	inconclusive: 7.82%	–
COc1ccc(OC)c(S(=O)(=O)N2CCN(c3ncccn3)CC2)c1	inconclusive: -28.3%	–
Cn1c(=O)c2c(n3cnnc13)-c1ccccc1CC21CCCC1	–	inconclusive: 29.1 µM [falling, single point]
Cc1cccc(NCc2cccc3ccccc23)n1	–	inconclusive: 0.731 µM [activator, single point]

SMILES	lipid storage change, negative = inhibition	Potency
CCCCSc1nc2c(cnn2-c2ccc(Cl)cc2)c(=O)[nH]1	inconclusive: -21.3%	–
COc1ccc(-c2cc(=O)c3c(O)cc(O[C@@H]4O[C@H](CO[C@@H]5O[C@@H](C)[C@H](O)[C@@H](O)[C@H]5O)[C@@H](O)[C@H](O)[C@H]4O)cc3o2)cc1O	inconclusive: 19.6%	–
COc1cc(/C=C/C(=O)C2C(=O)C=C(C)OC2=O)cc(OC)c1O (stereo unspecified)	–	inconclusive: 16.4 µM [falling, single point]
COc1ccc2c(c1)-c1c(ssc1=S)C(C)(C)N2	–	inconclusive: 29.1 µM [cytotoxic, single point]
Clc1ccc(CSc2nnc(/C=C/c3ccccc3)o2)c(Cl)c1	inconclusive: 33.2%	–
Cc1cccc(N(CC(=O)Nc2c(C)n(C)n(-c3ccccc3)c2=O)S(C)(=O)=O)c1	–	inconclusive: 29.1 µM [falling, single point]
CCN1C(=O)/C(=C\c2ccncc2)SC1=Nc1ccc(C)c(C)c1	–	inconclusive: 29.1 µM [falling, single point]
Cc1ccc(CNC(=O)CCc2nc3ccccc3c(=O)[nH]2)cc1	inconclusive: 22.6%	–
COc1ccc(-c2noc(-c3cc(C)cc(C)c3)n2)cc1OC	–	inconclusive: 3.26 µM [rising, single point]
Cc1ccc2sc(N(CCCN(C)C)C(=O)c3ccc(Br)s3)nc2c1C	–	inconclusive: 4.11 µM [falling, full curve, poor fit]
Cc1ccc(-c2c[n+](CC(=O)c3ccc(Br)cc3)c3n2CCCCC3)cc1	–	inconclusive: 18.4 µM [cytotoxic, partial curve]
COc1ccc(C(CNC(=O)c2oc3cc(C)c(C)cc3c2C)N2CCCCC2)cc1 (stereo unspecified)	inconclusive: 75.9%	–
Cc1cc(NS(=O)(=O)c2ccc(NC(=O)/C=C/c3ccccc3)cc2)no1	–	inconclusive: 0.517 µM [activator, single point]
C/C(=N\NC(=O)c1ccc(CSc2nncn2C)cc1)c1ccc(C#N)cc1	inconclusive: 24.2%	–
O=C(NCc1ccco1)c1csc2c1CCCC2	–	inconclusive: 29.1 µM [falling, single point]
CN(CC(=O)Nc1ccccc1Cl)C(=O)c1ccc(N2CCCCCC2)c([N+](=O)[O-])c1	inconclusive: 2.58%	–
CCCn1c(SCC(=O)Nc2sc(C)c(C)c2C(=O)OCC)nc2c1c(=O)n(C)c(=O)n2C	inconclusive: 18.2%	–
O=C(c1ccco1)N1CCn2cccc2C1c1ccccc1 (stereo unspecified)	inconclusive: -7.75%	–
O=C(CCNC(=O)c1ccccc1Cl)Nc1ccncc1	inconclusive: 14.6%	–
CN1CCC(=NOc2ccc([N+](=O)[O-])cc2)CC1	inconclusive: 43.3%	–
CN1CCN(C(=O)/C=C/c2cccc(Cl)c2)CC1	–	inconclusive: 18.4 µM [falling, single point]
O=C(c1ccco1)N1CCN(C(c2ccccc2Cl)c2nnnn2CC2CCCO2)CC1 (stereo unspecified)	inconclusive: 28.9%	–
COC1=C(Nc2ccccc2)C(=O)c2ccccc2C1=O	–	inconclusive: 29.1 µM [cytotoxic, single point]

Given with bars between the fields: part of the list above.
SMILES | lipid storage change, negative = inhibition | Potency
COc1cc(/C=C/C(=O)C2C(=O)C=C(C)OC2=O)cc(OC)c1O (stereo unspecified) | – | inconclusive: 16.4 µM [falling, single point]
COc1ccc2c(c1)-c1c(ssc1=S)C(C)(C)N2 | – | inconclusive: 29.1 µM [cytotoxic, single point]
